Experimental data as given in PubChem BioAssay AID2685 (National Center for Advancing Translational Sciences (NCATS), 2010).
The list shows a part of the results. Shown are side measurements of this screen, not its main read-out; they come without a call. The list favours compounds with an active or inconclusive main result. Potencies come from curve fits of mixed quality, noted in brackets.

Test: qHTS Assay for Lipid Storage Modulators in Drosophila S3 Cells;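 as to cell number change: cells counted by Cell Tracker Red CMTPX staining in the red channel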
Conditions: BODIPY lipid droplet fluorescence, 18-24 h; for cell number change: measured here: cell count max response, cells fed with added oleic acid
Summary of the method: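 Drosophila S3 cells loaded with oleic acid (400 uM, as added) and compounds at several concentrations; lipid droplets imaged by 488-nm laser-scanning cytometry, 500–530 nm intensity and object ratio to cell channel. Percent activity normalized to 20 uM Triacsin C.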

[1] = measured here: cell number channel AC50, cells fed with added oleic acid
[2] = measured here: lipid fluorescence (Fed channel) AC50, cells fed with added oleic acid

SMILES | cell number change | AC50 [1] | AC50 [2]
Cc1ccc(S(=O)(=O)N2CCN(CC(O)COc3ccccc3)CC2)cc1 (configuration not stated) | 6.67% | – | –
CCCOc1ccc(OCCn2nc(C(=O)O)c3ccccc3c2=O)cc1 | 57.3% | 1.84 µM [rising, partial curve] | 29.1 µM [rising, partial curve, poor fit]
COCCN(C(=O)COC(=O)CCCOc1ccc(OC)cc1)c1c(N)n(Cc2ccccc2)c(=O)[nH]c1=O | -14% | 0.092 µM [falling, full curve, poor fit] | 0.116 µM [falling, full curve, poor fit]
CC(=O)NC1(C(F)(F)F)C(=O)Nc2c1c(=O)[nH]c(=O)n2Cc1ccco1 (configuration not stated) | -1.27% | – | –
COc1ccc(/C=C(\C#N)C(=O)C(C)(C)n2cncn2)cc1 | -8.62% | – | –
NC(=O)CC(NC(=O)c1ccccc1)c1ccc(NC2CCCCCCC2)c([N+](=O)[O-])c1 (configuration not stated) | 17.2% | – | –
Fc1ccc(F)c(C2=NNC(=Nc3ccccc3F)SC2)c1 | -5.31% | – | –
O=C(Cc1n[nH]c(=O)c2ccccc12)N1CCN(c2ccc(F)cc2)CC1 | 33.1% | – | –
Nc1nc(N)nc(-c2cccc(Cl)c2Cl)n1 | 28.9% | – | 20.6 µM [rising, partial curve, poor fit]
CCOCCCn1c(=S)[nH]c2cc(C(=O)NCC(OC)OC)ccc2c1=O | 18% | – | 0.411 µM [falling, single point]
COCCNC(=O)CSc1nc2ccccc2c2nc(C)nn12 | -23.8% | – | 2.31 µM [falling, full curve, poor fit]
COCc1nnc(NC(=O)CC(c2ccccc2)c2ccccc2)s1 | -8.65% | – | 0.58 µM [falling, full curve, poor fit]
Cc1cc(NS(=O)(=O)c2ccc(NC(=O)CCCOc3ccccc3)cc2)no1 | 4.61% | – | 1.46 µM [falling, full curve]
CC1CCCC(C)N1C(=O)COc1ccccc1F (configuration not stated) | -43.3% | 29.1 µM [falling, single point] | 29.1 µM [falling, single point]
COC(=O)c1oc2ccccc2c1N | 13% | – | 29.1 µM [rising, single point]
Cc1ccc(C(=O)N2CCc3ccccc32)cc1NC(=O)c1ccco1 | 77.2% | 23.1 µM [rising, single point] | 20.6 µM [rising, single point]
O=C(Nc1nc(-c2ccccn2)cs1)c1ccc(Cl)s1 | -48.5% | 2.06 µM [falling, partial curve] | 2.06 µM [falling, partial curve]
O=[N+]([O-])/C(C(Cl)=C(Cl)Cl)=C1\Nc2ccccc2O1 | -4.86% | – | 1.46 µM [falling, full curve]
CCOc1ccc(NC(=O)COC(=O)CCC(=O)c2cccs2)cc1 | -16.2% | – | 23.1 µM [rising, single point]

SMILES | cell number change | AC50 [1] | AC50 [2]
Cc1nnc2sc(-c3ccc(-c4ccc(Cl)c(C(F)(F)F)c4)o3)nn12 | -59.8% | 6.51 µM [falling, full curve] | 8.2 µM [falling, partial curve]
COc1ccccc1-n1c(SCC(=O)Nc2cccc(C)c2)nc2c(c1=O)SCC2 | 37.4% | 13 µM [rising, partial curve, poor fit] | –
Fc1c(F)c(F)c(N=Cc2ccc3ncccc3c2)c(F)c1F | 100% | 6.51 µM [rising, full curve] | –
Cc1ccc(Oc2ccc(-c3nnc(-c4ccccc4)o3)cc2[N+](=O)[O-])cc1C | -31.4% | 6.51 µM [falling, partial curve] | 1.84 µM [falling, partial curve, poor fit]
CC(=O)c1c(O)cc(=O)n(-c2ccccc2)c1-c1cccc2ccccc12 | 36.2% | 0.411 µM [rising, full curve, poor fit] | –
C/C(=N/NS(=O)(=O)c1ccc(Br)cc1)c1ccc(C)o1 | -20.8% | – | –
CCCCNC(=O)NS(=O)(=O)c1ccc(NC(=O)C(NC(N)=O)C(C)CC)cc1 (configuration not stated) | -6.42% | 0.461 µM [falling, single point] | 0.00517 µM [falling, full curve, poor fit]
Cc1sc2ncnc(NCc3ccco3)c2c1C | -39.6% | 4.61 µM [falling, partial curve, poor fit] | 29.1 µM [falling, single point]
CCOC(=O)c1c(NC(=O)CNCCO)sc(C)c1C | -12.1% | – | 0.00517 µM [rising, full curve, poor fit]
Cc1cnc([N+](=O)[O-])n1CCOC(=O)NC(=O)c1cccc(F)c1 | -25.6% | – | –
COc1cc(-c2nc(CCNC(=O)c3ccco3)cs2)cc(OC)c1OC | – | – | 25.9 µM [falling, partial curve]
O=C(NC(=S)Nc1ccc(CN2CCCCC2)cc1)c1ccco1 | -32% | 0.92 µM [falling, full curve, poor fit] | 0.82 µM [falling, full curve]
Cn1c(SCC(=O)N2CCc3ccccc32)nc2cccnc21 | -1.7% | 4.61 µM [rising, single point] | 4.11 µM [rising, single point]
COc1ccc(COC(=O)CCS(=O)(=O)c2ccc(C)cc2)cc1F | – | 1.84 µM [rising, partial curve] | –
COc1ccc(CC(=O)N(Cc2ccccc2)C(C)C)cc1 | -38.6% | 13 µM [falling, partial curve, poor fit] | 5.17 µM [falling, single point]
Cc1cc(C)n(CC(=O)N/N=C/c2ccccn2)n1 | 60.2% | 29.1 µM [rising, single point] | 18.4 µM [rising, single point]
CCCCNC(=O)Nc1nnc(-c2ccc(OCC)cc2)o1 | – | – | 18.4 µM [rising, partial curve]
CC(=O)Nc1cccc(C(=O)N/N=C/c2cccnc2)c1 | 9.68% | – | –
COc1ccc(-c2ccc(N(C)C)cc2)cc1[C@H]1[C@H]2C=CC[C@@H](C)[C@@H]2C(=O)N1Cc1ccccc1 | 17.3% | – | 18.4 µM [rising, single point]
